PubChem BioAssay AID686938 | Drosophila RNAi Screening Center | 2013
The screen tested about 23,000 reagents; below is an unselected part of those that have a named target and a result. Of all reagents, 75 (0.33%) were called active. 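Raw plate signals without normalisation; calls rest on plate z-scores that were not deposited; ratio present for only 364 wells.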 Entries without a mark were called inactive. Not stated in the record: the dose of the treatment.

Screen: 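Knock-downs reducing store-operated calcium influx in Drosophila cells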 (primary screen)
System: Drosophila S2R+ cells
Knock-down reagent: long dsRNA against Drosophila genes, about 0.25 µg dsRNA per well, roughly 10,000 cells
Duration: 5 days of knock-down before the calcium assay
Treatment: thapsigargin (SERCA pump blocker) to empty calcium stores; entry signal taken 4 min after adding it
Read-out: 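Duplicate raw fluo-4 intensities per well from a plate reader, at rest and four minutes after thapsigargin emptied calcium stores; entry-to-rest ratio filled for only some wells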
Reading the numbers: calcium entry signal: higher = stronger calcium signal after store depletion; entry to resting ratio: higher = more calcium entry relative to resting level; resting calcium signal: higher = higher resting calcium signal
Hit rule: 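Called when the plate z-score of the entry-to-rest ratio, mean of duplicates, falls below −3; wells with low overall dye signal (Fmax z below −2) or more than five off-targets excluded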
Meaning of the calls: active = strongly reduced calcium entry; inactive = no strong reduction

| target | dsRNA | calcium entry signal, replicate 1 (fluorescence units) | calcium entry signal, replicate 2 (fluorescence units) | entry to resting ratio | resting calcium signal, replicate 1 (fluorescence units) | resting calcium signal, replicate 2 (fluorescence units) |
| --- | --- | --- | --- | --- | --- | --- |
| CG5347 | DRSC19942 | 3.52e7 | 3.03e7 | – | 1.86e7 | 1.42e7 |
| CG15147 | DRSC02447 | 5.31e7 | 7.96e7 | – | 2.32e7 | 2.93e7 |
| CG15147 | DRSC02448 | 5.02e7 | 3.07e7 | – | 2.04e7 | 1.49e7 |
| CG9411 | DRSC20184 | 3.08e7 | 3.26e7 | – | 1.52e7 | 1.46e7 |
| seq (sequoia) | DRSC06863 | 2.50e7 | 3.89e7 | – | 1.36e7 | 1.73e7 |
| CG43867 | DRSC17582 | 3.50e7 | 4.12e7 | – | 1.98e7 | 1.76e7 |
| CG43867 | DRSC17836 | 3.61e7 | 4.67e7 | 2 | 1.78e7 | 1.90e7 |
| CG43867 | DRSC17837 | 4.27e7 | 3.06e7 | 2.1 | 2.01e7 | 1.29e7 |
| CG43867 | DRSC17942 | 3.87e7 | 3.40e7 | 2.1 | 1.87e7 | 1.76e7 |
| CG43867 | DRSC17943 | 4.22e7 | 5.72e7 | 2 | 2.06e7 | 2.26e7 |
| siz (schizo) | DRSC11622 | 3.10e7 | 5.10e7 | – | 1.56e7 | 2.16e7 |
| siz (schizo) | DRSC11689 | 3.41e7 | 4.57e7 | – | 1.76e7 | 1.95e7 |
| siz (schizo) | DRSC11690 | 3.28e7 | 5.49e7 | – | 1.55e7 | 1.98e7 |
| wa-cup (walker cup) | DRSC12511 | 2.50e7 | 2.26e7 | – | 1.30e7 | 1.09e7 |

2 entries from above, ordered by “resting calcium signal, replicate 1 (fluorescence units)”, low to high:
| target | dsRNA | calcium entry signal, replicate 1 (fluorescence units) | calcium entry signal, replicate 2 (fluorescence units) | entry to resting ratio | resting calcium signal, replicate 1 (fluorescence units) | resting calcium signal, replicate 2 (fluorescence units) |
| --- | --- | --- | --- | --- | --- | --- |
| siz (schizo) | DRSC11690 | 3.28e7 | 5.49e7 | – | 1.55e7 | 1.98e7 |
| siz (schizo) | DRSC11689 | 3.41e7 | 4.57e7 | – | 1.76e7 | 1.95e7 |

More records:
| target | dsRNA | calcium entry signal, replicate 1 (fluorescence units) | calcium entry signal, replicate 2 (fluorescence units) | entry to resting ratio | resting calcium signal, replicate 1 (fluorescence units) | resting calcium signal, replicate 2 (fluorescence units) |
| --- | --- | --- | --- | --- | --- | --- |
| mod(mdg4) (modifier of mdg4) | DRSC13474 | 4.49e7 | 3.23e7 | – | 2.39e7 | 1.62e7 |
| mod(mdg4) (modifier of mdg4) | DRSC13475 | 4.34e7 | 3.05e7 | – | 2.43e7 | 1.56e7 |
| mod(mdg4) (modifier of mdg4) | DRSC13478 | 4.39e7 | 3.09e7 | – | 2.25e7 | 1.52e7 |
| mod(mdg4) (modifier of mdg4) | DRSC13479 | 4.90e7 | 2.97e7 | – | 2.18e7 | 1.43e7 |
| mod(mdg4) (modifier of mdg4) | DRSC15042 | 2.38e7 | 3.11e7 | – | 2.90e7 | 1.34e7 |
| mod(mdg4) (modifier of mdg4) | DRSC17000 | 5.17e7 | 4.37e7 | – | 2.29e7 | 1.79e7 |
| CG17839 | DRSC10290 | 4.43e7 | 5.66e7 | – | 1.96e7 | 2.06e7 |
| CG17839 | DRSC10291 | 4.06e7 | 5.41e7 | – | 1.87e7 | 1.96e7 |
| Dcps (Decapping enzyme, scavenger) | DRSC12299 | 4.12e7 | 4.42e7 | – | 1.82e7 | 2.05e7 |
| Nepl18 (Neprilysin-like 18) | DRSC14879 | 3.73e7 | 6.02e7 | – | 1.99e7 | 2.60e7 |
